PubChem BioAssay AID1053208 | Peter MacCallum Cancer Centre, 2014
Shown is a random part of about 17,000 reagents. Of all reagents, 788 (4.7%) were called active. 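Calls rest on z-score classes alone; an extra cut-off of viability at most 70% of control was not applied to them.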 A number with no mark means an inactive call.

Purpose: 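Genes whose silencing cuts survival of bone tumour cells only with doxorubicin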 (primary screen)
Cell system: mouse osteosarcoma cells, early-passage culture from an engineered mouse model of fibroblastic bone tumour
Reagents: siRNA pool against mouse genes, 40 nM
Duration: about 120 h (48 h before drug, then 72 h with drug)
Challenge: doxorubicin 100 nM for 72 h, roughly 30-40% inhibitory dose
Detection: 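Luminescent ATP signal taken as viability with or without 100 nM doxorubicin for 72 h; mean of two wells set against non-targeting siRNA and turned into robust z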
Reading the numbers: viability z-score with doxorubicin and doxorubicin viability vs non-targeting: higher = more viable cells under doxorubicin; viability z-score without drug: higher = more viable cells with knock-down alone; z-score of drug to no-drug ratio: higher = less drug sensitisation by knock-down
Call rule: 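Called active if knock-down leaves viability unchanged without drug (z within -2 to 2) but lowers it with doxorubicin (z at or under -2)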

| Gene | combined z-score class | viability z-score with doxorubicin | viability z-score without drug | z-score of drug to no-drug ratio | doxorubicin viability vs non-targeting |
| --- | --- | --- | --- | --- | --- |
| Zfp189 (zinc finger protein 189) | no change with or without drug | 0.79 | 1.18 | 0.11 | 1.01 |
| Chmp1b2 (charged multivesicular body protein 1B2) | no change with or without drug | 1.91 | 1.01 | 1.35 | 1.11 |
| Or5p68 (olfactory receptor family 5 subfamily P member 68) | no change with or without drug | 0.11 | 0.17 | 0.11 | 0.95 |
| Kpna6 (karyopherin subunit alpha 6) | no change with or without drug | -1.12 | -1.85 | 0.22 | 0.84 |
| Otub1 (OTU domain, ubiquitin aldehyde binding 1) | no change with or without drug | 1.69 | 0.17 | 1.8 | 1.09 |
| Adamdec1 (ADAM-like, decysin 1) | no change with or without drug | -0.45 | -0.51 | 0 | 0.9 |
| Pou4f3 (POU domain, class 4, transcription factor 3) | no change with or without drug | 1.12 | 1.35 | 0.34 | 1.04 |
| Or5d47 (olfactory receptor family 5 subfamily D member 47) | no change with or without drug | 1.01 | 0.17 | 1.01 | 1.03 |
| Sel1l3 (sel-1 suppressor of lin-12-like 3 (C. elegans)) | low cell count with and without drug | -3.15 | -2.53 | -1.8 | 0.66 |
| Gtf3c5 (general transcription factor IIIC, polypeptide 5) | no change with or without drug | 0.45 | 0.84 | 0 | 0.98 |
| Pabpc4 (poly(A) binding protein, cytoplasmic 4) | no change with or without drug | -0.11 | -0.17 | 0.11 | 0.93 |
| Fgf2 (fibroblast growth factor 2) | no change with or without drug | -0.67 | 0.34 | -0.79 | 0.88 |
| Defb20 (defensin beta 20) | no change with or without drug | 0.67 | 0.17 | 0.67 | 1 |
| Chrnb2 (cholinergic receptor nicotinic beta 2 subunit) | no change with or without drug | -1.57 | 0.34 | -1.8 | 0.8 |
| Or52ab4 (olfactory receptor family 52 subfamily AB member 4) | no change with or without drug | -0.22 | 0.51 | -0.45 | 0.92 |
| Sarm1 (sterile alpha and HEAT/Armadillo motif containing 1) | no change with or without drug | -0.67 | -0.17 | -0.45 | 0.88 |
| Rassf3 (Ras association (RalGDS/AF-6) domain family member 3) | high cell count without drug only | 1.35 | 2.19 | 0 | 1.06 |
| Thsd7b (thrombospondin, type I, domain containing 7B) | no change with or without drug | -0.67 | -0.84 | 0 | 0.88 |
| Cyb5r2 (cytochrome b5 reductase 2) | no change with or without drug | 0.9 | 0.84 | 0.45 | 1.02 |
| Slitrk5 (SLIT and NTRK-like family, member 5) | no change with or without drug | 0.22 | 0.17 | 0.22 | 0.96 |
| Plxna3 (plexin A3) | no change with or without drug | 0.45 | 0 | 0.56 | 0.98 |
| Or1m1 (olfactory receptor family 1 subfamily M member 1) | no change with or without drug | -0.67 | 0.67 | -1.01 | 0.88 |
| Cacng6 (calcium channel, voltage-dependent, gamma subunit 6) | no change with or without drug | 0.22 | 1.01 | -0.34 | 0.96 |
| Or5b117 (olfactory receptor family 5 subfamily B member 117) | no change with or without drug | 0 | -0.51 | 0.45 | 0.94 |
| Syt12 (synaptotagmin XII) | no change with or without drug | -1.35 | 0.17 | -1.46 | 0.82 |
| Mmp2 (matrix metallopeptidase 2) | no change with or without drug | 0.45 | 0.84 | 0 | 0.98 |
| Bhmt2 (betaine-homocysteine methyltransferase 2) | no change with or without drug | 0 | -0.17 | 0.22 | 0.94 |
| Vmn1r71 (vomeronasal 1 receptor 71) | no change with or without drug | 0 | -0.84 | 0.67 | 0.94 |
| Aggf1 (angiogenic factor with G patch and FHA domains 1) | no change with or without drug | 1.57 | 0.51 | 1.35 | 1.08 |
| Samd10 (sterile alpha motif domain containing 10) | no change with or without drug | 0.45 | 0.84 | 0 | 0.98 |
| Got1 (glutamic-oxaloacetic transaminase 1, soluble) | no change with or without drug | 0.45 | -0.17 | 0.67 | 0.98 |
| Tcp1 (t-complex protein 1) | low cell count without drug only | -0.45 | -8.43 | 11.5 | 0.9 |
| Cyp2c29 (cytochrome P450, family 2, subfamily c, polypeptide 29) | no change with or without drug | -0.67 | 0 | -0.56 | 0.88 |
| Aspa (aspartoacylase) | no change with or without drug | 0.67 | -0.84 | 1.46 | 1 |
| Irgq (immunity-related GTPase family, Q) | no change with or without drug | -0.22 | -1.52 | 1.01 | 0.92 |
| Sprr2i (small proline-rich protein 2I) | no change with or without drug | 1.35 | 1.69 | 0.34 | 1.06 |
| Axl (AXL receptor tyrosine kinase) | no change with or without drug | -0.34 | -0.51 | 0.11 | 0.91 |
| Slc26a3 | no change with or without drug | 0.34 | 1.18 | -0.34 | 0.97 |
| 2310011J03Rik (RIKEN cDNA 2310011J03 gene) | no change with or without drug | -0.56 | 1.18 | -1.24 | 0.89 |
| 4930556L07Rik (RIKEN cDNA 4930556L07 gene) | no change with or without drug | 0.45 | -0.67 | 1.12 | 0.98 |
| Ska3 (spindle and kinetochore associated complex subunit 3) | no change with or without drug | -1.12 | 0.34 | -1.24 | 0.84 |
| Epo (erythropoietin) | no change with or without drug | 0 | 1.18 | -0.67 | 0.94 |
| Slc2a10 | no change with or without drug | -1.24 | 1.01 | -1.8 | 0.83 |
| Kics2 (KICSTOR subunit 2) | no change with or without drug | -0.9 | -1.52 | 0.22 | 0.86 |
| Oas2 (2'-5' oligoadenylate synthetase 2) | no change with or without drug | -0.22 | 0.51 | -0.45 | 0.92 |
| Rph3a (rabphilin 3A) | no change with or without drug | 0.79 | 1.52 | -0.11 | 1.01 |
| Knop1 (lysine rich nucleolar protein 1) | no change with or without drug | -0.9 | 0.51 | -1.12 | 0.86 |
| NRG1 | no change with or without drug | 0.67 | 0.51 | 0.45 | 1 |
| Nab1 (Ngfi-A binding protein 1) | no change with or without drug | 1.46 | 0.34 | 1.35 | 1.07 |
| Lrfn4 | no change with or without drug | -0.67 | -0.84 | 0 | 0.88 |

Copied from the list.
Or52ab4 (olfactory receptor family 52 subfamily AB member 4), z-score of drug to no-drug ratio = -0.45
Samd10 (sterile alpha motif domain containing 10), z-score of drug to no-drug ratio → 0
Value of Oas2 (2'-5' oligoadenylate synthetase 2) under “z-score of drug to no-drug ratio”: -0.45
Thsd7b (thrombospondin, type I, domain containing 7B), viability z-score without drug: -0.84
Under “z-score of drug to no-drug ratio”, Slc26a3 reads -0.34
Result of Or5b117 (olfactory receptor family 5 subfamily B member 117) in “viability z-score without drug”: -0.51
